Measured values from PubChem BioAssay AID651640 (Broad Institute, 2012).
Screen size: about 350,000 compounds; about 6,000 (1.7%) were called active. The inconclusive results got no clear call from the source; some entries with a clear call stand among them for comparison. No stated cut-off is given here; in the data, active means CPE inhibition above about 20% (passing the limit was not always enough); inconclusive means no clear call, values can overlap the other calls; tested in BHK-21 cells.

Experiment: protection of cells from dengue 2 killing – plate reader, single concentration, primary screen (AID 651640);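 further: 0% = median of neutral control wells and 100% = median of positive control wells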
Conditions: DENV2-infected cells, cytopathic effect rescue, at 9.99 µM, stronger effect = higher value
With `CNC(=S)N1CCC(C(=O)c2ccc(Cl)cc2)CC1` the CPE inhibition was active: 22.1%. With `COc1ccc(S(=O)(=O)N2C[C@@H](O)COC[C@@H]3O[C@@H](CC(=O)NCc4ccc(Cl)c(Cl)c4)CC[C@H]32)cc1` the CPE inhibition was inactive: 0.387%. With `NNC(=O)Cn1nnc(-c2ccc(C(F)(F)F)cc2)n1` the CPE inhibition was inconclusive: 43.9%. With `Cc1noc(C)c1NC(=O)Nc1ccc2c(c1)C(=O)N([C@H](C)CO)C[C@@H](C)[C@@H](CN(C)S(=O)(=O)c1cn(C)cn1)O2` the CPE inhibition was inactive: -4.77%. In the case of `C/C(=N\NC(=O)C1CC1(c1ccccc1)c1ccccc1)c1cccc([N+](=O)[O-])c1` (stereo not drawn), the CPE inhibition is reported as inconclusive: 48.4%. In the case of `C[C@@H]1CN([C@H](C)CO)C(=O)c2cc(NC(=O)C3CCCCC3)ccc2O[C@@H]1CN(C)CC1CCCCC1`, the CPE inhibition is reported as active: 22.8%. For `CNc1cccc(-c2ccccc2CO)n1`, the CPE inhibition was active: 30.1%. In the case of `Nc1ncnc2c1ncn2[C@@H]1O[C@H](C(=O)N2CCSC2)[C@@H](O)[C@H]1O`, the CPE inhibition is reported as inconclusive: 53.4%. For `COc1ccc(C(=O)NCc2nnc(SCC(=O)c3ccc(F)cc3)n2C)cc1OC`, the CPE inhibition was inconclusive: 28%. In the case of `CCN(C(=O)c1ccc2c(SCC(=O)O)c3c(nc2c1)CCC3)c1cc(Cl)ccc1OC`, the CPE inhibition is reported as active: 50.3%. With `CN(C(=O)c1ccc(Cl)cc1)C1CCS(=O)(=O)C1` (stereo not drawn) the CPE inhibition was inconclusive: 47.3%. For `C[C@@H]1CN([C@H](C)CO)C(=O)c2cc(NC(=O)Nc3ccc(C(F)(F)F)cc3)ccc2O[C@@H](C)CCCCO[C@H]1CN(C)Cc1ccc(Cl)c(Cl)c1`, the CPE inhibition was inactive: 2.77%. For `O=C(COC(=O)CNC(=O)c1ccc(Cl)c([N+](=O)[O-])c1)NC(=O)c1ccccc1`, the CPE inhibition was inconclusive: 39.2%. With `COc1cc(/C=N/NC(=O)c2cc(-c3ccco3)nc3ccccc23)cc(OC)c1O` the CPE inhibition was active: 30.8%. In the case of `COc1cccc(NC(=O)c2ccccc2-c2ccccc2C(=O)O)c1`, the CPE inhibition is reported as inactive: -5.47%. With `CC1=C(/C=C/C(C)=C/C=C/C(C)=C/CO)C(C)(C)CCC1` the CPE inhibition was active: 122%. For `CCCCn1nnnc1C1(C)CCC(=O)N1Cc1cccs1` (stereo not drawn), the CPE inhibition was inactive: 12.6%. With `CCCN(C)C1CN(Cc2cn(Cc3ccc(C(F)(F)F)cc3)nn2)S(=O)(=O)C1` (stereo not drawn) the CPE inhibition was inconclusive: 39.4%. In the case of `COc1ccc(-c2cc(=O)oc3cc(OC(=O)C4CCCCC4)ccc23)cc1`, the CPE inhibition is reported as inactive: 0.605%. With `C/C=C/c1ccc(OCCCCN(C)Cc2ccccc2)c(OC)c1` the CPE inhibition was inconclusive: 31.1%. For `C[C@H](CO)N1C[C@H](C)[C@@H](CN(C)Cc2ccc(C(=O)O)cc2)OCCCC[C@H](C)Oc2ccc(NS(=O)(=O)c3ccc(Cl)cc3)cc2C1=O`, the CPE inhibition was inconclusive: 22.7%. With `CN1C(C(=O)NCc2ccc(OC(F)(F)F)cc2)CC2Cn3c(nc4ccccc43)C21` (stereo not drawn) the CPE inhibition was active: 32.3%. For `O=c1cc(-c2ccccc2)nc(Sc2ccc([N+](=O)[O-])cc2[N+](=O)[O-])[nH]1`, the CPE inhibition was inactive: 0.332%. With `CC(=O)Oc1cc(C(=O)OCC(=O)N2CCc3ccccc3C2)cc(OC(C)=O)c1OC(C)=O` the CPE inhibition was inconclusive: 27.5%. In the case of `COc1cc(C(C)=O)ccc1OCC(=O)NCC(c1ccc(F)cc1)N1CCOCC1` (stereo not drawn), the CPE inhibition is reported as inconclusive: 61.1%. For `COc1cccc(CNC(=O)C[C@H]2C=C[C@@H](NC(=O)C3CC3)[C@H](CO)O2)c1`, the CPE inhibition was inactive: 8.07%. With `Cc1ccc(C(=O)O/N=C(\N)c2ccccn2)cc1` the CPE inhibition was active: 28.8%. For `CNC(=O)C1CC(=O)N(c2ccc(OCC(=O)Nc3ccccc3)cc2)C1` (stereo not drawn), the CPE inhibition was inactive: -0.382%. In the case of `COc1ccc([C@@H]2CC=C(C(=O)O)[C@H](c3ccccc3)N2S(=O)(=O)c2ccc(C)cc2)cc1OC`, the CPE inhibition is reported as active: 48.8%. With `CC12CCC(=O)N1C(C(=O)Nc1nc(-c3ccccc3)cs1)CS2` (stereo not drawn) the CPE inhibition was active: 28.6%. With `O=C(Nc1cc(F)ccc1F)N1C[C@@H]2[C@H](c3ccccc31)[C@H](CO)N2C(=O)c1ccccc1` the CPE inhibition was inconclusive: 23.9%. For `C[C@@H]1CCCCO[C@@H](CN(C)Cc2ccc3c(c2)OCO3)[C@H](C)CN([C@H](C)CO)C(=O)c2cc(N(C)C)ccc2O1`, the CPE inhibition was inconclusive: 72.1%. In the case of `O=C(CC(NCc1ccccn1)C(=O)O)Nc1ccccc1Cl` (stereo not drawn), the CPE inhibition is reported as inactive: -0.554%. For `Cn1cnc(S(=O)(=O)N2[C@@H]3CNC[C@H]2C3c2ccc(-c3ccncc3)cc2)c1` (stereo partly drawn), the CPE inhibition was inconclusive: 28.4%. For `CCCC(=O)Nc1ccc2nn(-c3ccc(OC)cc3)nc2c1`, the CPE inhibition was active: 26%. In the case of `CCNC(=O)C1(C)CCN(C(=O)c2ccc(OC)cc2)C1` (stereo not drawn), the CPE inhibition is reported as inconclusive: 50.1%. For `CCC(=O)N1[C@H](CO)[C@H](c2ccc(-c3ccc(C#N)cc3)cc2)C12CN(C(C)=O)C2`, the CPE inhibition was inactive: 3.57%. In the case of `C[C@@H]1CN([C@@H](C)CO)C(=O)c2cc(NC(=O)Nc3ccc(C(F)(F)F)cc3)ccc2O[C@@H]1CN(C)C`, the CPE inhibition is reported as active: 22.5%. In the case of `Cc1cccc(OC(=O)NCCOC(=O)N(O)c2ccc(Cl)cc2)c1`, the CPE inhibition is reported as inconclusive: 27.2%. In the case of `COc1ccc(/C=C2\Oc3cc(OCC(N)=O)ccc3C2=O)cc1OC`, the CPE inhibition is reported as active: 44.8%. For `CCc1nc2ccccc2n1CCc1ccccc1`, the CPE inhibition was inactive: 4.09%. In the case of `N#C[C@@H]1[C@H](c2ccccc2-c2ccc(F)cc2)[C@H](CO)N1C(=O)Cc1ccccc1`, the CPE inhibition is reported as inactive: -7.46%. In the case of `Cc1ccc(NC(=O)N2CCN(C(=O)c3ccco3)CC2)cc1Cl`, the CPE inhibition is reported as active: 38.5%. With `COc1ccc(CN2CC3(CN(C(C)=O)C3)c3c([nH]c4cc(OC)ccc34)[C@H]2CO)cc1` the CPE inhibition was inconclusive: 21.9%. In the case of `COc1ccc(C(=O)N2CCN(C3CCCCC3)CC2)cc1OC`, the CPE inhibition is reported as active: 31.2%. In the case of `COc1ccc(-c2cc(C(=O)Nc3cc(C)ccc3O)no2)cc1`, the CPE inhibition is reported as inconclusive: 27.7%. In the case of `Cc1noc(C)c1NC(=O)Nc1ccc2c(c1)C(=O)N([C@@H](C)CO)C[C@H](C)[C@@H](CN(C)C(=O)Nc1cccc3ccccc13)O2`, the CPE inhibition is reported as inactive: -5.9%. For `Cc1noc(C)c1NC(=O)Nc1ccc2c(c1)CC(=O)N([C@H](C)CO)C[C@H](C)[C@H](CN(C)C(=O)Nc1ccccc1)O2`, the CPE inhibition was active: 20.2%. In the case of `CCc1ccc2oc(C(=O)NCC(c3ccc(OC)cc3)N3CCCCC3)c(C)c2c1` (stereo not drawn), the CPE inhibition is reported as inconclusive: 52.7%. With `CCCN1CCN(CCCNC(=O)c2ccc3nc(N4CCC(C)CC4)sc3c2)CC1` the CPE inhibition was inactive: -6.96%. In the case of `CNC[C@@H]1OCCCC[C@@H](C)Oc2ccc(NC(=O)CCC(F)(F)F)cc2C(=O)N([C@@H](C)CO)C[C@H]1C`, the CPE inhibition is reported as inconclusive: 28.4%. In the case of `Cc1ccc(S(=O)(=O)N(C)C[C@H]2Oc3ccc(NC(=O)CCN4CCOCC4)cc3C(=O)N([C@H](C)CO)C[C@@H]2C)cc1`, the CPE inhibition is reported as inactive: -6.16%. In the case of `CO[C@H]1CN(C)C(=O)c2cc(NC(=O)c3ccccc3F)ccc2OC[C@H](C)N(CC2CC2)C[C@@H]1C`, the CPE inhibition is reported as inactive: -1.87%. With `CN1C(=O)c2cc(NC(=O)C3CCC3)ccc2OC[C@@H]2O[C@@H](CC(=O)NCCc3ccncc3)CC[C@H]21` the CPE inhibition was inconclusive: 47%. With `CN1[C@H](C(=O)NC2CCCC2)[C@@H](CO)[C@@H]2Cn3c(ccc(/C=C/c4ccccc4)c3=O)[C@@H]21` the CPE inhibition was inconclusive: 40.9%. For `CCn1c(CNC(=O)c2ccccc2OC)nnc1SCC(=O)c1ccc(F)cc1`, the CPE inhibition was inconclusive: 20.1%. With `CCc1ccccc1N(C(=O)c1ccco1)C(C(=O)NC1CCCC1)c1cccnc1` (stereo not drawn) the CPE inhibition was active: 54.5%. For `CC=Cc1ccc2n(c1=O)C[C@@H]1[C@@H](CO)[C@H](C(=O)NCCc3cn(C)cn3)[C@H]2N1C(=O)C1CC1` (mixture of isomers), the CPE inhibition was inactive: 4.85%. For `CCNC(=O)[C@H]1[C@H](CO)[C@H]2Cn3c(ccc(-c4cccc(OC)c4)c3=O)[C@H]2N1S(C)(=O)=O`, the CPE inhibition was active: 27.9%. In the case of `O=C(NCC1CCCO1)c1cccc(Oc2c(Cl)cccc2[N+](=O)[O-])c1` (stereo not drawn), the CPE inhibition is reported as inconclusive: 53.6%. For `CCOCCc1nn2c(=O)cc(CSCC(=O)Nc3ccccc3)nc2s1`, the CPE inhibition was inconclusive: 48.2%. For `O=C(c1ccccc1)N1[C@@H](CO)[C@@H](c2ccccc2)C12CN(Cc1nccs1)C2`, the CPE inhibition was active: 25.3%. In the case of `COCCCNC(=O)CC1C[C@H](C(=O)N2CCOCC2)[C@@]2(CCC3CCCC3)c3[nH]c4ccc(OC)cc4c3CCN2C1=O` (stereo partly drawn), the CPE inhibition is reported as inconclusive: 20.3%. For `CCOC(=O)[C@@H]1[C@H]2COc3cc(OC)ccc3[C@@H]2N2C(=O)N(c3ccc(Cl)cc3)C(=O)[C@]12C`, the CPE inhibition was inconclusive: 43.1%. In the case of `C[C@@H]1CN([C@@H](C)CO)C(=O)Cc2cc(NS(=O)(=O)c3cn(C)cn3)ccc2O[C@H]1CN(C)Cc1ccc2c(c1)OCO2`, the CPE inhibition is reported as inactive: 7.54%. With `O=C(c1ccccc1)N1CC[C@H]2[C@H](CO)Nc3ccc(C#Cc4cccc(F)c4)cc3[C@H]21` the CPE inhibition was active: 63.6%. With `COc1ccc(NC(=O)CC2C(=O)N(c3ccccc3)C(=O)N2CCc2cccs2)cc1` (stereo not drawn) the CPE inhibition was inactive: -7.72%. In the case of `NC(Cc1ccc(Cl)cc1)c1csc(Nc2ccc(-c3ccccc3)nn2)n1` (stereo not drawn), the CPE inhibition is reported as inconclusive: 25.5%. In the case of `CNC[C@@H]1Oc2ncc(C#CCC(C)C)cc2C(=O)N([C@H](C)CO)C[C@@H]1C`, the CPE inhibition is reported as inactive: -5.36%. In the case of `CN1C[C@@H]2[C@@H]3C(=O)N(C)C(=O)[C@@H]3[C@](Cc3ccccc3)(C1=O)N2C(=O)c1ccc(F)cc1`, the CPE inhibition is reported as inconclusive: 38.9%. In the case of `CC1Sc2ccc(S(=O)(=O)CCC(=O)NC3CCCCCC3)cc2NC1=O` (stereo not drawn), the CPE inhibition is reported as inactive: 1.8%. For `O=C1[C@H]2[C@@H](c3ccc(C(F)(F)F)cc3)N[C@]3(CCCN(CC4CCCCC4)C3=O)[C@H]2C(=O)N1Cc1ccccc1`, the CPE inhibition was inconclusive: 62.5%. In the case of `COC(=O)[C@H]1[C@H](c2ccccc2)[C@H](C(=O)OC)O[C@H]1c1ccccc1`, the CPE inhibition is reported as inconclusive: 31.4%.
